Results as given in patent USRE38416E1, “Cross-linking oligonucleotides” (Epoch Biosciences, Inc., priority 1988, dated 2004).

Tested on: pHPV-16
Experiment: Filter hybridization of nick-translated biotinylated probe to pHPV-16 slotted onto nitrocellulose
Set-up: species or system human papillomavirus type 16
Settings: streptavidin-alkaline phosphatase conjugate with BCIP/NBT substrate

Nc1ncnc2c1c(CCCCCNC(=O)CCCCCNC(=O)CCCC[C@@H]1SC[C@@H]3NC(=O)N[C@@H]31)nn2[C@H]1C[C@H](O)[C@@H](COP(=O)(O)OP(=O)(O)OP(=O)(O)O)O1 [Example 9, 1-(2-Deoxy-β-D-erythropentofuranosyl)-3-[5-(6-biotinamido)-hexanamidopentyl]pyrazolo[3,4-d]pyrimidin-4-amine 5′-triphosphate.]
filter hybridization signal compared with probe prepared using bio-11-dUTP: No significant differences
filter hybridization signal compared with probe prepared using bio-11-dUTP (listed as Bio-12-dAPPTP): identical signals
